Measurements from patent US20160185850A1 (ESBATECH AN ALCON BIOMEDICAL RESEARCH UNIT, published 2016).
No constants are given. Whether binding was seen depends on the method and setting. Some results given as binding are weak or reduced against the parent protein; the word gives no strength.

Amino acid sequences for entries named in this document (tags omitted). Residues count along the entry.
UniProt P01375, residues 77-233: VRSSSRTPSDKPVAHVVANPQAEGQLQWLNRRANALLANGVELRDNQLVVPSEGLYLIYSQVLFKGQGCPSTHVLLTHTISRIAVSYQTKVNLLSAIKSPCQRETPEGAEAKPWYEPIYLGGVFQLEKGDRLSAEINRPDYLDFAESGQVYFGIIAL

Target: recombinant human TNFα (human, UniProt P01375 77-233)
Assay: ELISA on recombinant human TNFα (data not shown)

- binding: binds
B1: TB-A Fab antibody (Fab, V domains shown)
VH: QVQLVQSGAEVKKPGASVKVSCTASGYTFTHYGMNWVRQAPGKGLEWMGWINTYTGEPTYADKFKDRFTFSLETSASTVYMELTSLTSDDTAVYYCARERGDAMDYWGQGTLVTVSS
VL: DIVMTQSPSSLSASVGDRVTLTCTASQSVSNDVVWYQQRPGKAPKLLIYSAFNRYTGVPSRFSGRGYGTDFTLTISSLQPEDVAVYYCQQDYNSPRTFGQGTKLEVKR
